Source: patent US20220162338A1 (SICHUAN KELUN BIOTECH BIOPHARMACEUTICAL, published 2022)
Results are given in words; binding and its absence hold for the method and conditions named. Some binding calls cover weakened binding; strength is not graded here.

Chains of the proteins cited; added tags and fusions are not shown. Residues count along the entry.
UniProt P03951, residues 19-625: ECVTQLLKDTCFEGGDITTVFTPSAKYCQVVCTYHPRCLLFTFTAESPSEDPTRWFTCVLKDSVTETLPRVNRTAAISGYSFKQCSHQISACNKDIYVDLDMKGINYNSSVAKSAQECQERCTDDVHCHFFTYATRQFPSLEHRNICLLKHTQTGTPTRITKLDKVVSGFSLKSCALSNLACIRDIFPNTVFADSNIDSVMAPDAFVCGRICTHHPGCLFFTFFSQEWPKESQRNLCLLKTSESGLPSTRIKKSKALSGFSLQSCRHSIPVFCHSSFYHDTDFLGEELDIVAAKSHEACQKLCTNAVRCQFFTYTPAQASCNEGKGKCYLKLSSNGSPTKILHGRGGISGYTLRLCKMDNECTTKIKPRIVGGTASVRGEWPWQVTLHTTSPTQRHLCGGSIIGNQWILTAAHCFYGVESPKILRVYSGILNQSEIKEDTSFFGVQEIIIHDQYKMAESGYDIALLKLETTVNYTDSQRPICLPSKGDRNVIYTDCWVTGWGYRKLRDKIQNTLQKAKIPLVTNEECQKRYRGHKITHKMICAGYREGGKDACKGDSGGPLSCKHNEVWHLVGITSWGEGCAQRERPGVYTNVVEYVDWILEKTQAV

Biological target: human FXI antigen expressed in 293F cells (human) (UniProt P03951)
Test: ELISA on coated human FXI (293F-expressed, 1 µg/mL), HRP goat anti-human secondary antibody, OD450

binding: binds
B1: humanized antibody 36G9.10-hz73 (antibody, human IgG1, kappa, N297A, V domains shown)
VH: EVQLVQSGAEVKKPGATVKISCKASGFNIKDTYIHWVQQAPGKGLEWMGRIDPANDNTIYAEKFQGRVTITADTSTNTAYMELSSLRSEDTAVYYCAQDYDGFAMDYWGQGTLVTVSS
VL: DIQMTQSPSSLSASVGDRVTITCKASQDINKYITWFQQKPGKAPKLLIHYTSTLQPGVPSRFSGSGSGRDYTLTISSLQPEDFATYYCLQYDYLLTFGGGTKVEIKR
